According to PMC4521150, “Discovery of Novel Inhibitors and Fluorescent Probe Targeting NAMPT” (Scientific Reports, 2015):

Experiment: Fluorescence of the compounds at a series of concentrations
Conditions: compound's own fluorescence in the NAMPT assay read-out

SMILES | Concentration at which compound fluorescence was detected [nM]
O=C(NCCCN1CCCC1=O)c1ccc(N2CCc3ccccc32)s1 [G122-1637] | > 1562
CCCn1c(=O)c(-c2ccc(C(=O)NCc3cccnc3)cc2)nc2ccccc21 [M049-0244] | > 1562
